From patent US20190048090A1
No constants are given. Whether binding was seen depends on the method and setting. Binding calls can cover weak binding; strength is not graded here.

Protein sequences, listed by entry. Tags and fused reporters are not part of them. Lines headed by an entry give the natural chain unless they say otherwise; changes in a name come on top.
UniProt P17301: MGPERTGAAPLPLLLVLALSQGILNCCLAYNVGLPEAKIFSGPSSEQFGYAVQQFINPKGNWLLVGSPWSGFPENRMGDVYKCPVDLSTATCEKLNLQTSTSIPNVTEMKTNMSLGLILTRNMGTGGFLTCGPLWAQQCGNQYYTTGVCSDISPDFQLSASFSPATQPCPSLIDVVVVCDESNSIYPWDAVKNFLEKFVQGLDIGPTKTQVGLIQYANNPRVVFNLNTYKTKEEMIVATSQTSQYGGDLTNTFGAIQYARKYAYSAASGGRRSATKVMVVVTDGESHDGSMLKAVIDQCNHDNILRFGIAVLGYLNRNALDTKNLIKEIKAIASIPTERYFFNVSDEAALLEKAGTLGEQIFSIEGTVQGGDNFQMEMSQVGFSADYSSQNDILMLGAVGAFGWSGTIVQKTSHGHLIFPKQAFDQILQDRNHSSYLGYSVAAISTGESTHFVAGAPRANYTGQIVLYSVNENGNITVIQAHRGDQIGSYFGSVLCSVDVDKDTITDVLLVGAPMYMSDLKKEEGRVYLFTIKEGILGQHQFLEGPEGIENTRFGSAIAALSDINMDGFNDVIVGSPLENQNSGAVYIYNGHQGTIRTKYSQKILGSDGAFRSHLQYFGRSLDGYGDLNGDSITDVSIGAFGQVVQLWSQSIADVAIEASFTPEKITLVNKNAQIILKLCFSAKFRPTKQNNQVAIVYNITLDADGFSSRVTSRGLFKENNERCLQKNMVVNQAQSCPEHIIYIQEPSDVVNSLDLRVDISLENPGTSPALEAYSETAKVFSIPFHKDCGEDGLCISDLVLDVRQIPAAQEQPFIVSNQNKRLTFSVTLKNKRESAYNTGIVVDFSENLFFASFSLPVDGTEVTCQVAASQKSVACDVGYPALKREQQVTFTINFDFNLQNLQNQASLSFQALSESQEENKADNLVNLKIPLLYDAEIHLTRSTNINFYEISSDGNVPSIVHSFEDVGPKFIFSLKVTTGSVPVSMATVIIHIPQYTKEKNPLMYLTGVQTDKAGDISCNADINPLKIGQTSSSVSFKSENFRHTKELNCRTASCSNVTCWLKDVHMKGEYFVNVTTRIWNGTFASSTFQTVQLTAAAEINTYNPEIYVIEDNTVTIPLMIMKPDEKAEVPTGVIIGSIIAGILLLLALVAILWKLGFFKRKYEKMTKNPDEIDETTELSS
UniProt Q12864: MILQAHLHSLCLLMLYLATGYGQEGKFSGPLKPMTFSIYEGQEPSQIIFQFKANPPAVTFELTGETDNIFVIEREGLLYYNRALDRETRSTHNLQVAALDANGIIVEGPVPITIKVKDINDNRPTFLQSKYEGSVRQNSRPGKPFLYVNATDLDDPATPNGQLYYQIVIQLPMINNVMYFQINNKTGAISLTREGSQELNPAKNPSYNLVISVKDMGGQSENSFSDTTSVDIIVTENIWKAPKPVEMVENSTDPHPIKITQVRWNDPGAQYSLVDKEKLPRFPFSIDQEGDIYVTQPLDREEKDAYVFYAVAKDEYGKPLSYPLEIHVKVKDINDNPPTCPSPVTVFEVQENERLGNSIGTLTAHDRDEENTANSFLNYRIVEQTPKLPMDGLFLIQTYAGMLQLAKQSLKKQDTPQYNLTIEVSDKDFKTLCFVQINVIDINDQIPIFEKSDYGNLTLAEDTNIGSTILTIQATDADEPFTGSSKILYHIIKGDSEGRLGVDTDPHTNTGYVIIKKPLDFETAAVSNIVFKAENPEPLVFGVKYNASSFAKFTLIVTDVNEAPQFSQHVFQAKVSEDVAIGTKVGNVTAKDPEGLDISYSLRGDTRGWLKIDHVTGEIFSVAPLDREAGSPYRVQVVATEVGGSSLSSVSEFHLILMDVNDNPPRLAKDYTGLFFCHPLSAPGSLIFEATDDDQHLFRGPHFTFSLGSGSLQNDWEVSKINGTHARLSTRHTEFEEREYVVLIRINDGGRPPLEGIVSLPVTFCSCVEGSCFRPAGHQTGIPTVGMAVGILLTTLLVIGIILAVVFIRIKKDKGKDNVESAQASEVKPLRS

Key:
α2β1 integrin (human) [1] = biological target: α2β1 integrin (human) (UniProt P17301); experiment: affinity chromatography of KM12SM lysate, RGDS elution, western blot
α2β1 integrin (human) [2] = biological target: α2β1 integrin (human) (UniProt P17301); experiment: affinity chromatography of KM12SM lysate on immobilized domain 6, elution with RGDS peptide, western blot

binding (α2β1 integrin (human) [1]): binds
binding (α2β1 integrin (human) [2]): binds
Substance: recombinant CDH17 domain 6 wild type (571-665) (from UniProt Q12864)
